Measured values reported in paper PMC3724809, “Analysis of the Interaction Interfaces of the N-Terminal Domain from Pseudomonas aeruginosa MutL” (PLoS ONE, 2013).
No constants are given. Whether binding was seen depends on the method and setting. Some entries that bind do so weakly or less than the wild type. Tags and fused reporters may be left off the sequences shown.

Target: T1, Pseudomonas aeruginosa MutL C-terminal domain (PaCTD), from pTYB12-PaMutLΔ1–224, free of tag (Pseudomonas aeruginosa) (UniProt Q9HUL8)
T1 sequence: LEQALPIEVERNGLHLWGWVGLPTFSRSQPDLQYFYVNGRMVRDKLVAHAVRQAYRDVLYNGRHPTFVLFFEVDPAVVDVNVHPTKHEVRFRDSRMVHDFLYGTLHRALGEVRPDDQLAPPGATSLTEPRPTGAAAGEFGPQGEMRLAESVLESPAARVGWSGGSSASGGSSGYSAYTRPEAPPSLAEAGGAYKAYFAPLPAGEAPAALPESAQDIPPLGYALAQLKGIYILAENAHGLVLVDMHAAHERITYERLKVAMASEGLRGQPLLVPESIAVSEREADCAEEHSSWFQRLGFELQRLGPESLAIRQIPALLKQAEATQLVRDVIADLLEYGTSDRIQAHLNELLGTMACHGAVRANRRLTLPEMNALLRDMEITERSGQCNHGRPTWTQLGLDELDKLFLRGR
Test: far-Western, overlay or dot blot; PaCTD (6.5 pmol) spotted on nitrocellulose; 0.6 µM His6-PaNTD in 20 mM Tris-HCl pH 8.0, 0.15 M KCl, 1 mM EDTA, 5 mM MgCl2, without nucleotide, with 0.1 mM ADP or with 0.1 mM ATP, overnight at 4°C; detected with anti-His6; both purified

binding: binds
B1: Pseudomonas aeruginosa MutL N-terminal domain (PaNTD, amino acids 1-339), His6-tagged (domain or fragment, UniProt Q9HUL8 1-339, looked up)
chain: MSEAPRIQLLSPRLANQIAAGEVVERPASVAKELLENSLDAGSRRIDVEVEQGGIKLLRVRDDGRGIPADDLPLALARHATSKIRELEDLERVMSLGFRGEALASISSVARLTMTSRTADAGEAWQVETEGRDMQPRVQPAAHPVGTSVEVRDLFFNTPARRKFLRAEKTEFDHLQEVIKRLALARFDVAFHLRHNGKTIFALHEARDELARARRVGAVCGQAFLEQALPIEVERNGLHLWGWVGLPTFSRSQPDLQYFYVNGRMVRDKLVAHAVRQAYRDVLYNGRHPTFVLFFEVDPAVVDVNVHPTKHEVRFRDSRMVHDFLYGTLHRALGEVRPD
notes: MutL of Pseudomonas aeruginosa, N-terminal ATPase domain, residues 1-339 of PaMutL, amplified from genomic DNA; monomeric MW 37.7 kDa; The pET-15b vector should add an N-terminal His6 tag with a thrombin site (surmised, as is cloning through NdeI); no cleavage of the tag is described; also called His6-PaNTD; His-tag PaNTD
